PubChem BioAssay AID1671195 – Yale University – 2021

Test: 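Genes whose knockdown alters LDL uptake in liver cancer cells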 (primary screen)
System: human Huh7 hepatoma cells
Reagent: siRNA pool against human genes, 18 nM
Duration: about 2 to 2.5 days of knockdown, then 8 h LDL uptake
Treatment: DiI-labelled LDL at 30 µg/ml for 8 h, in lipoprotein-deficient serum medium
Measured: 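Per-cell DiI-LDL intensity by automated imaging; well means scaled to the plate median and given as a robust z-score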
Direction: robust z-score: higher = more LDL uptake after knockdown
Active means: 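Active when two or more replicates show a robust z-score above 2 or below -2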
The deposit covers about 22,000 reagents; this is an unselected part. About 1,510 of them (6.9%) were called active. 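Active includes knockdowns raising or lowering LDL uptake; positive z-scores mean more uptake, negative mean less.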 The numbers tell different reagents against one gene apart.

Gene	reagent	robust z-score, replicate 1	robust z-score, replicate 2	robust z-score, replicate 3	outcome
SOHLH2	1	-0.0167	0.0129	0.541	inactive
TMEM101	1	-0.837	-0.671	-0.421	inactive
MAGEB2	1	-0.73	-0.672	-0.336	inactive
LOC441834 (retired record)	1	-1.02	-0.735	-1.08	inactive
SLITRK6	1	-0.307	-1.04	-0.928	inactive
SUMO4	1	2.38	3.22	2.94	active
ALS2	1	-0.753	-0.156	-0.379	inactive
RPS19	1	-1.76	-0.377	-0.911	inactive
LOC392533 (retired record)	1	-0.724	-0.00195	-0.0474	inactive
BMS1P1	1	0.776	0.876	0.758	inactive
DUSP4	1	-0.408	-0.619	0.296	inactive
LOC389192 (retired record)	1	0.687	-0.333	-0.398	inactive
GPR31	1	1.53	0.22	1.08	inactive
PCDHA3	1	2.32	2.03	2	active
NRARP	1	0.897	0.24	0.0276	inactive
PRR5	1	1.08	-0.35	0.728	inactive
RXYLT1	1	3.72	2.88	0.439	active
ATP5MK	1	-0.343	0.144	-0.15	inactive
RPSAP32	1	0.704	0.897	0.873	inactive
TMEM98	1	1.34	1.73	1.49	inactive
LOC285307 (retired record)	1	-0.892	-0.876	-0.563	inactive
MBD2	1	-0.892	-0.602	-0.871	inactive
EXOSC5	1	-0.245	-0.0496	-0.471	inactive
BFSP1	1	1.08	0.354	1.73	inactive
IFT81	1	-0.0447	-0.453	0.33	inactive
ACER2	1	-0.887	-0.998	-0.704	inactive
FZD8	1	0.431	-0.204	-0.556	inactive
LGI1	1	-0.0837	1.61	0.156	inactive
OR13D1	1	0.365	0.0718	0.316	inactive
HK1	1	-0.657	-1.09	-0.3	inactive
OR52I2	1	-0.887	-1.62	-0.997	inactive
LEPROT	1	0.263	0.196	-0.208	inactive
CASQ2	1	-1.37	-0.939	-0.914	inactive
CLN8	1	-1.09	-0.357	-0.354	inactive
CLN8	2	-1.53	-0.891	-1.09	inactive
MDH2	1	1.32	1.18	1.75	inactive
ATP9A	1	0.566	0.0441	0.338	inactive
MRPS14	1	0.54	0.524	1	inactive
EIF4A3	1	-0.854	-0.593	-0.347	inactive
ANLN	1	-0.305	-0.883	-0.518	inactive
FMN1	1	-1.03	-1.53	-1.2	inactive
SEC22A	1	1.34	-2.66	-0.133	inactive
HOXA9	1	-0.337	-0.577	-0.535	inactive
NUFIP2	1	-1.3	0.0982	0.665	inactive
CST1	1	-0.0805	-0.282	-0.653	inactive
MORC2	1	-0.037	-0.0576	0.173	inactive
FKBP3	1	0.272	0.38	0.413	inactive
ANKRD62	1	0.371	0.713	0.804	inactive
ARMC6	1	-1.11	-0.444	-0.544	inactive
LOC400701 (retired record)	1	0.546	0.435	0.423	inactive
ADAT2	1	-2.81	-1.35	-1.16	inactive
INTS15	1	2.26	1.93	2.9	active
LRP8	1	-0.047	0.212	-0.365	inactive
SPC25	1	-0.862	-0.249	-0.0937	inactive
PIK3R3	1	-0.332	0.913	-0.347	inactive
ME3	1	-0.461	-0.267	-0.815	inactive
KCNK5	1	0.169	-0.579	0.619	inactive
FANCL	1	-0.788	1.39	0.292	inactive
VEGFC	1	1.85	0.15	0.341	inactive
DYNC1LI1	1	1.49	1.09	2.94	inactive
KIF18B	1	-0.996	0.149	-0.621	inactive
DDO	1	0.626	0.739	0.786	inactive
LOC401155 (retired record)	1	2.1	2.1	1.92	active
TMEM117	1	-0.777	-0.819	-1.21	inactive
SQOR	1	0.377	-0.771	0.238	inactive
E2F6	1	4.44	4.24	1.68	active
LOC440491 (retired record)	1	0.515	-0.131	0.559	inactive
MFAP2	1	0.00996	0.075	-0.763	inactive
UBE2NL	1	2.32	2.77	2.24	active
H2AZ2P1	1	1.2	0.978	0.955	inactive
POLR3F	1	0.439	0.376	0.617	inactive
EVC2	1	0.535	-0.376	0.603	inactive
CALB2	1	3.31	2.78	3.28	active
RILP	1	-0.898	0.185	-1.01	inactive
TRAIP	1	-1.29	-1.14	-1.03	inactive
GTF3C2	1	-0.102	0.722	0.629	inactive
TAS2R46	1	-0.146	-0.123	0.0421	inactive
APOLTP	1	0.86	1.45	1.21	inactive
ATP2A2	1	-1.03	-0.953	-0.75	inactive
MLLT6	1	2.33	4.19	2.9	active
GMPS	1	-0.799	-0.329	-0.764	inactive
TMEM38A	1	4.99	4.91	4.42	active
NOL11	1	-1.03	-0.614	-1.06	inactive
ZIC3	1	-0.544	-0.942	-0.584	inactive
TRIM6	1	1.03	0.198	1.17	inactive
EPB41L4B	1	0.55	1.8	1.13	inactive
FUNDC2P2	1	0.748	0.96	0.272	inactive

Only “robust z-score, replicate 1” (4 entries from above):
ATP2A2: -1.03
MLLT6: 2.33
GMPS: -0.799
TMEM38A: 4.99
